# Assay results from the supplement of paper PMC8728848.
# This is one part of the list.
# B1: Mcg Light Chain Dimer (Homo sapiens), Q6PIK1 (protein)
# chain: MAGFPLLLTLLTHCAGSWGQSLLTQPPSVSGTPGQRVTISCSGSSSNIGINYVYWYQQIPGTAPKLLISTNDQRPSGVPDRFSGSKSGTSASLAIGGLRSEDEAHYYCAAWDDSMSGPGYAFGTGTKVTVLRQPKANPTVTLFPPSSEELQANKATLVCLISDFYPGAVTVAWKADGSPVKAGVETTKPSKQSNNKYAASSYLSLTPEQWKSHRSYSCQVTHEGSTVEKTVAPTECS
# Experiments:
# Test in all cases: glycan array binding signal (z-score within array); higher = stronger binding
# Conditions in all cases: glycan notation: IUPAC condensed, linker removed
# [1] = biological target: Neu5Ac(a2-3)Gal6S(b1-4)[Fuc(a1-3)]GlcNAc
# Procedure, shortened: (§1)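 From the Consortium for Functional Glycomics database, 3228 arrays were curated, keeping only those whose protein sequence was available. Binding is given as a within-array Z-score averaged across arrays sharing a protein sequence and across linkers. Negative Z-scores can be read as non-binding.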
# Neu5Ac(a2-3)GalNAc = biological target: Neu5Ac(a2-3)GalNAc
# Procedure, shortened: as §1
# [2] = biological target: Neu5Ac(a2-3)GalNAc(b1-4)GlcNAc
# Procedure, shortened: as §1
# [3] = biological target: Neu5Ac(a2-3)[GalNAc(b1-4)]Gal(b1-4)Glc
# Procedure, shortened: as §1
# [4] = biological target: Neu5Ac(a2-3)[GalNAc(b1-4)]Gal(b1-4)GlcNAc
# Procedure, shortened: as §1
# [5] = biological target: Neu5Ac(a2-3)[Neu5Ac(a2-6)]GalNAc
# Procedure, shortened: as §1
# Neu5Ac(a2-6)Gal = biological target: Neu5Ac(a2-6)Gal
# Procedure, shortened: as §1
# Neu5Ac(a2-6)Gal(b1-4)Glc = biological target: Neu5Ac(a2-6)Gal(b1-4)Glc
# Procedure, shortened: as §1
# [6] = biological target: Neu5Ac(a2-6)Gal(b1-4)GlcNAc
# Procedure, shortened: as §1
# [7] = biological target: Neu5Ac(a2-6)Gal(b1-4)GlcNAc(b1-2)Man(a1-3)[Gal(b1-4)GlcNAc(b1-2)Man(a1-6)]Man(b1-4)GlcNAc(b1-4)GlcNAc
# Procedure, shortened: as §1
# [8] = biological target: Neu5Ac(a2-6)Gal(b1-4)GlcNAc(b1-2)Man(a1-3)[GlcNAc(b1-2)Man(a1-6)]Man(b1-4)GlcNAc(b1-4)GlcNAc
# Procedure, shortened: as §1
# [9] = biological target: Neu5Ac(a2-6)Gal(b1-4)GlcNAc(b1-2)Man(a1-3)[GlcNAc(b1-2)Man(b1-4)GlcNAc(b1-2)Man(a1-6)]Man(b1-4)GlcNAc(b1-4)GlcNAc
# Procedure, shortened: as §1
# [10] = biological target: Neu5Ac(a2-6)Gal(b1-4)GlcNAc(b1-2)Man(a1-3)[Neu5Ac(a2-6)Gal(b1-4)GlcNAc(b1-2)Man(a1-6)]Man(b1-4)GlcNAc(b1-4)GlcNAc
# Procedure, shortened: as §1
# [11] = biological target: Neu5Ac(a2-6)Gal(b1-4)GlcNAc(b1-2)Man(a1-6)[Gal(b1-4)GlcNAc(b1-2)Man(a1-3)]Man(b1-4)GlcNAc(b1-4)GlcNAc
# Procedure, shortened: as §1
# [12] = biological target: Neu5Ac(a2-6)Gal(b1-4)GlcNAc(b1-2)Man(a1-6)[GlcNAc(b1-2)Man(a1-3)]Man(b1-4)GlcNAc(b1-4)GlcNAc
# Procedure, shortened: as §1
# [13] = biological target: Neu5Ac(a2-6)Gal(b1-4)GlcNAc(b1-3)Gal(b1-4)GlcNAc
# Procedure, shortened: as §1
# [14] = biological target: Neu5Ac(a2-6)Gal(b1-4)GlcNAc(b1-3)Gal(b1-4)[Fuc(a1-3)]GlcNAc(b1-3)Gal(b1-4)[Fuc(a1-3)]GlcNAc
# Procedure, shortened: as §1
# [15] = biological target: Neu5Ac(a2-6)Gal(b1-4)GlcNAc6S
# Procedure, shortened: as §1
# Neu5Ac(a2-6)GalNAc = biological target: Neu5Ac(a2-6)GalNAc
# Procedure, shortened: as §1
# [16] = biological target: Neu5Ac(a2-6)GalNAc(b1-4)GlcNAc
# Procedure, shortened: as §1
# Neu5Ac(a2-8)Neu5Ac = biological target: Neu5Ac(a2-8)Neu5Ac
# Procedure, shortened: as §1
# [17] = biological target: Neu5Ac(a2-8)Neu5Ac(a2-3)Gal(b1-4)Glc
# Procedure, shortened: as §1
# [18] = biological target: Neu5Ac(a2-8)Neu5Ac(a2-3)[GalNAc(b1-4)]Gal(b1-4)Glc
# Procedure, shortened: as §1
# [19] = biological target: Neu5Ac(a2-8)Neu5Ac(a2-8)Neu5Ac
# Procedure, shortened: as §1
# [20] = biological target: Neu5Ac(a2-8)Neu5Ac(a2-8)Neu5Ac(a2-3)Gal(b1-4)Glc
# Procedure, shortened: as §1
# [21] = biological target: Neu5Ac(a2-8)Neu5Ac(a2-8)Neu5Ac(a2-3)[GalNAc(b1-4)]Gal(b1-4)Glc
# Procedure, shortened: as §1
# [22] = biological target: Neu5Ac(a2-8)Neu5Ac(a2-8)Neu5Ac(a2-8)Neu5Ac(a2-3)[GalNAc(b1-4)]Gal(b1-4)Glc
# Procedure, shortened: as §1
# [23] = biological target: Neu5Ac(b2-6)Gal(b1-4)GlcNAc
# Procedure, shortened: as §1
# Neu5Ac(b2-6)GalNAc = biological target: Neu5Ac(b2-6)GalNAc
# Procedure, shortened: as §1
# [24] = biological target: Neu5Ac9Ac(a2-6)Gal(b1-4)GlcNAc
# Procedure, shortened: as §1
# [25] = biological target: Neu5Gc(a2-3)Gal(b1-3)GlcNAc
# Procedure, shortened: as §1
# [26] = biological target: Neu5Gc(a2-3)Gal(b1-3)[Fuc(a1-4)]GlcNAc
# Procedure, shortened: as §1
# Neu5Gc(a2-3)Gal(b1-4)Glc = biological target: Neu5Gc(a2-3)Gal(b1-4)Glc
# Procedure, shortened: as §1
# [27] = biological target: Neu5Gc(a2-3)Gal(b1-4)GlcNAc
# Procedure, shortened: as §1
# [28] = biological target: Neu5Gc(a2-3)Gal(b1-4)[Fuc(a1-3)]GlcNAc
# Procedure, shortened: as §1
# [29] = biological target: Neu5Gc(a2-6)Gal(b1-4)GlcNAc
# Procedure, shortened: as §1
# Neu5Gc(a2-6)GalNAc = biological target: Neu5Gc(a2-6)GalNAc
# Procedure, shortened: as §1
# [30] = biological target: Neu5Gc(b2-6)Gal(b1-4)GlcNAc
# Procedure, shortened: as §1
binder,measurement,setting,value
B1,glycan array binding signal (z-score),[1],2.77
same,glycan array binding signal (z-score),Neu5Ac(a2-3)GalNAc,0.972
same,glycan array binding signal (z-score),[2],-0.859
same,glycan array binding signal (z-score),[3],-0.742
same,glycan array binding signal (z-score),[4],0.214
same,glycan array binding signal (z-score),[5],-0.552
same,glycan array binding signal (z-score),Neu5Ac(a2-6)Gal,0.635
same,glycan array binding signal (z-score),Neu5Ac(a2-6)Gal(b1-4)Glc,0.116
same,glycan array binding signal (z-score),[6],-0.24
same,glycan array binding signal (z-score),[7],0.991
same,glycan array binding signal (z-score),[8],-0.753
same,glycan array binding signal (z-score),[9],-0.76
same,glycan array binding signal (z-score),[10],-0.154
same,glycan array binding signal (z-score),[11],0.533
same,glycan array binding signal (z-score),[12],-0.928
same,glycan array binding signal (z-score),[13],-0.777
same,glycan array binding signal (z-score),[14],1.03
same,glycan array binding signal (z-score),[15],-0.267
same,glycan array binding signal (z-score),Neu5Ac(a2-6)GalNAc,-1.03
same,glycan array binding signal (z-score),[16],0.429
same,glycan array binding signal (z-score),Neu5Ac(a2-8)Neu5Ac,0.574
same,glycan array binding signal (z-score),[17],0.933
same,glycan array binding signal (z-score),[18],1.28
same,glycan array binding signal (z-score),[19],-0.069
same,glycan array binding signal (z-score),[20],-0.874
same,glycan array binding signal (z-score),[21],0.66
same,glycan array binding signal (z-score),[22],-0.996
same,glycan array binding signal (z-score),[23],-0.955
same,glycan array binding signal (z-score),Neu5Ac(b2-6)GalNAc,-0.173
same,glycan array binding signal (z-score),[24],-0.975
same,glycan array binding signal (z-score),[25],-0.735
same,glycan array binding signal (z-score),[26],0.41
same,glycan array binding signal (z-score),Neu5Gc(a2-3)Gal(b1-4)Glc,0.902
same,glycan array binding signal (z-score),[27],-0.746
same,glycan array binding signal (z-score),[28],1.2
same,glycan array binding signal (z-score),[29],0.325
same,glycan array binding signal (z-score),Neu5Gc(a2-6)GalNAc,-0.859
same,glycan array binding signal (z-score),[30],-0.855

# 3 consecutive records already listed:
binder,measurement,setting,value
B1,glycan array binding signal (z-score),[17],0.933
same,glycan array binding signal (z-score),[18],1.28
same,glycan array binding signal (z-score),[19],-0.069
